Laboratory results from PubChem BioAssay AID1347075 (National Center for Advancing Translational Sciences (NCATS), 2019).
Screen size: about 400,000 compounds; about 5,500 (1.4%) were called active. This list was built around the results that the source calls inconclusive (neither active nor inactive); the mix of calls is not that of the screen. Calls come from the whole dose curve; as a rule, active = well fitted cell-killing curve with a large enough effect; inconclusive = small, poorly fitted or top-dose-only effect, or effect the other way; inactive = flat fitted curve, though single readings scatter. A potency beside an inconclusive call is a rough fit, not a confirmed value.

assay: qHTS assay for MDR1-selective chemotherapeutics: Primary screen using the parental adenocarcinoma cell KB-3-1; conditions: KB-3-1 viability, CellTiter-Glo ATP luminescence, 72 h; activity change, negative = cytotoxic: at 46.1 µM (top of the series); note: nearly all actives have a fitted effect of over 60% in size
Method in brief: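 Parental KB-3-1 adenocarcinoma cells in phenol-red-free DMEM with 10% FBS were pin-treated with compounds at several concentrations, incubated 72 h at 37 °C, and viability read by CellTiter-Glo luminescence; concentration-effect curves were fitted after normalization.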
% is set by controls: 0 for no effect and ±100 for the full control effect; potency is the fitted concentration of half-maximal effect.

Structure (SMILES)	Potency	activity change, negative = cytotoxic
CCOc1ccc2nc(N3CCCN(C(=O)Nc4ccccc4C)CC3)c(C#N)cc2c1	inconclusive: 29.1 µM [cytotoxic, single point]	
O=C(CSc1oc(-c2ccco2)nc1S(=O)(=O)c1ccc(Cl)cc1)c1ccccc1		inactive: 2%
Cc1cc(NC(c2cccnc2)c2ccc3cccnc3c2O)no1 (stereo unspecified)	inconclusive: 8.2 µM [cytotoxic, partial curve]	
CCC(CO)NCc1ccc(-c2ccccc2)cc1 (stereo unspecified)	inconclusive: 16.4 µM [cytotoxic, partial curve]	
Cc1cccc(NC(=O)c2ccco2)c1C(=O)O	inconclusive: 29.1 µM [rising, partial curve, poor fit]	
CC(=O)c1cnn(-c2nc3c(C)cccc3s2)c1C	inconclusive: 29.1 µM [cytotoxic, single point]	
O=C(Nc1ccc2c(c1)CCCN2C(=O)c1ccccc1)c1ccccc1Br	inconclusive: 18.4 µM [cytotoxic, single point]	
CC(=O)[C@H]1[C@H](C#N)C[C@H]2[C@@H]3CC=C4C[C@@H](O)CC[C@]4(C)[C@H]3CC[C@@]21C		inconclusive: 31.9%
Cc1ccc(S(=O)(=O)n2cc(-c3ccccc3)c3ccccc32)cc1	active: 2.31 µM	
Cc1cc(C(=O)CN2C(=O)C(=O)N(Cc3ccco3)C2=O)c(C)n1CCc1ccc(F)cc1	active: 18.4 µM	
COc1ccc(NC(=O)C(Cc2ccccc2)n2cccc2)c(OC)c1 (stereo unspecified)	inconclusive: 18.4 µM [cytotoxic, partial curve, poor fit]	
O=C(NN=C1CCCC1)c1ccc(O)cc1O		inactive: 5.76%
Cc1c(C#N)c(NC(=O)CCl)n(Cc2ccc(F)cc2)c1C	inconclusive: 14.6 µM [cytotoxic, partial curve, poor fit]	
COc1cc(-c2cc3nc(NCCc4ccncc4)ccn3n2)cc(OC)c1OC		inactive: -0.0273%
O=C(NCC1COc2ccccc2O1)C1CCCN(S(=O)(=O)c2cccc3cccnc23)C1 (stereo unspecified)	inconclusive: 6.51 µM [cytotoxic, partial curve]	
CCCOC(=O)/C(C(N)=NCc1ccccc1)=C(\O)OCCC	inconclusive: 9.2 µM [cytotoxic, partial curve]	
COc1cccc(CNC[C@H]2O[C@@H](n3ccc(N)nc3=O)[C@H](O)[C@@H]2O)c1OCc1ccc(F)cc1Cl		inactive: 0%
COc1ccc(Nc2nnc(-c3ccc(C)c(S(=O)(=O)N4CCOCC4)c3)c3ccccc23)cc1		inactive: -17%
COc1ccccc1-c1c(C(F)(F)F)oc2cc(OCC(=O)Nc3ccccc3C(F)(F)F)ccc2c1=O		inactive: 3.38%
CC(=O)c1cccc(Nc2nc3ccccc3n3cnnc23)c1		inactive: -6.35%
COc1ccc(/C=C(/NC(=O)c2ccccc2)C(=O)N2CCCC2)cc1	inconclusive: 2.06 µM [rising, full curve]	
COC(=O)c1ccccc1NC(=O)Nc1cccc(C)n1		inconclusive: 0%
CC1(C(=O)Nc2cccc(C(F)(F)F)c2)Cc2c(-c3ccc4c(c3)OCO4)ccnc2O1 (stereo unspecified)	inconclusive: 29.1 µM [cytotoxic, single point]	
COC(=O)c1ccc(NC(=O)CSc2nnc(-c3cccnc3)o2)cc1		inactive: 3.42%

Structure (SMILES)	Potency	activity change, negative = cytotoxic
COc1ccc([C@H]2C[C@H](n3cc(-c4ccc(F)cc4)nn3)[C@@H](O)CN2Cc2cccs2)cc1		inactive: -18.4%
CC(NS(=O)(=O)c1ccccc1[N+](=O)[O-])c1ccccn1 (stereo unspecified)	inconclusive: 32.6 µM [rising, partial curve, poor fit]	
CCn1c(=O)cc(SCC(=O)Nc2ccc(C)cn2)c2ccccc21		inactive: 0.0426%
CSC[C@H]1CN(Cc2cccnc2)C(=O)[C@@H]1CC(=O)Nc1ccc(Br)cc1	inconclusive: 18.4 µM [rising, single point]	
CC(=O)c1ccccc1NC(=O)c1ccc(N2CCCC2=O)cc1		inactive: -4.91%
Cc1ccc(C(=O)NC(=C(Cl)Cl)S(=O)(=O)c2ccc(Cl)cc2)cc1	inconclusive: 20.6 µM [cytotoxic, single point]	
CC(C)n1nc(C(=O)NNC(=O)c2ccncc2)c2ccccc2c1=O	inconclusive: 5.8 µM [rising, full curve, poor fit]	
CC(=O)Nc1cc(O)c2nonc2c1O	active: 2.59 µM	
Cn1c(=O)c(/C=C/c2ccccc2)nc2ccccc21	inconclusive: 16.4 µM [cytotoxic, single point]	
COc1ccc(-n2c(=O)c3c4c(sc3n(Cc3cc(=O)n5c(C)cccc5n3)c2=O)CCC4)c(OC)c1		inactive: -9.33%
Cc1ccc(C(=O)NCCCNC(=O)COc2ccccc2Cl)cn1		inactive: 24.8%
COc1ccc(C2CC(=O)N3CN(C4CCCCC4)CSC3=C2C#N)cc1 (stereo unspecified)		inactive: 5.32%
COCCCNC(=O)[C@@H](Cc1ccccc1)NC(=O)CC[C@H]1O[C@@H](n2ccc(=O)[nH]c2=O)[C@H](O)[C@@H]1O		inactive: -0.0136%
COCCNC(=O)COC(=O)/C=C/c1c(C)nn(Cc2ccc(Cl)cc2Cl)c1Cl	inconclusive: 18.4 µM [cytotoxic, single point]	
COc1ccc(CCN(Cc2cc3cccc(C)c3[nH]c2=O)C(=O)NC2CCCCC2)cc1OC		inactive: 4.5%
CCCC(=O)NC(c1ccc(N(C)C)cc1)c1ccc2cccnc2c1O (stereo unspecified)	inconclusive: 1.46 µM [cytotoxic, full curve]	
COc1ccc2c(c1)C(=O)N(c1ccc(C)cc1C)C(=O)C2		inactive: -17%
C/C(=N\NC(N)=O)c1c(F)cccc1F	inconclusive: 29.1 µM [cytotoxic, single point]	
Cc1ccc(NC(=S)NCC23C=CC(O2)C2C(=O)N(c4ccc(C)cc4)C(=O)C23)cc1 (stereo unspecified)		inactive: 0.488%
Cc1c(NC(=O)CC(O)(C(F)(F)F)C(F)(F)F)c(=O)n(-c2ccccc2)n1C		inactive: 0.805%
O=C(Nc1ccc2c(c1)N(C1CCCC1)C(=O)c1ccccc1S2)c1ccccc1		inactive: -20.3%
N#CC1=C(N)C(C#N)(C#N)[C@H](c2ccoc2)[C@H]2CN(Cc3ccccc3)CC=C12	active: 5.17 µM	
COc1cccc(C(=O)N2CCC(C(=O)NCc3ccc(C)cc3)CC2)c1	inconclusive: 16.4 µM [rising, single point]	
CC(=O)Nc1ccc(S(=O)(=O)N2CCN(CCCOc3cc(C)ccc3C)CC2)cc1	inconclusive: 29.1 µM [cytotoxic, single point]	

Structure (SMILES)	Potency	activity change, negative = cytotoxic
COc1ccc(N2CC(NS(=O)(=O)c3ccc(F)cc3)CC2=O)cc1 (stereo unspecified)		inactive: -1.21%
O=C(Cn1cnc2c(cnn2-c2ccccc2)c1=O)N1CCCc2ccccc21		inactive: -9.47%
CCOc1ccc2cc(S(=O)(=O)N3CCCCC3)ccc2c1		inactive: -9.98%
Cc1ccccc1OCCC(=O)OCC(=O)N(C)c1c(N)n(Cc2ccccc2)c(=O)[nH]c1=O		inactive: 4.93%
O=C(NCc1cccs1)C(=O)c1c[nH]c2ccccc12	inconclusive: 20.6 µM [rising, single point]	
CC[C@@]12C(=O)N(c3cccc(Br)c3)C(=O)N1[C@H](c1ccc(Cl)cc1)[C@@H]1C(=O)N(C3CCCCC3)C(=O)[C@@H]12	inconclusive: 6.51 µM [cytotoxic, partial curve, poor fit]	
Nc1cc(=O)nc(SCC(=O)Nc2ccc(F)cc2)n1-c1ccccc1Cl	inconclusive: 20.6 µM [rising, partial curve, poor fit]	
COC(=O)c1cccc(NC(=O)Nc2ccc(Cl)cc2Cl)c1	inconclusive: 20.6 µM [cytotoxic, single point]	
COc1ccc(NC(=O)C2(C)Cc3c(-c4ccccc4)ccnc3O2)cn1 (stereo unspecified)	inconclusive: 29.1 µM [cytotoxic, single point]	
CCOC(=O)CC(S(=O)(=O)c1ccccc1)S(=O)(=O)c1ccccc1	inconclusive: 29.1 µM [cytotoxic, single point]	
CC(C)CN1C(=O)C(=Nc2cccnc2)c2ccccc21	inconclusive: 29.1 µM [cytotoxic, single point]	
Cc1occc1C(=O)Nc1ccc2c(c1)CCC2	inconclusive: 20.6 µM [cytotoxic, single point]	
COc1cc2nc(SCc3c(C)noc3C)n(CCC3=CCCCC3)c(=O)c2cc1OC	inconclusive: 20.6 µM [cytotoxic, single point]	
CC(=O)N1CCN(C(=O)c2cc(C)nc3ccccc23)CC1		inactive: -1.64%
CC(Sc1c[nH]c2ccccc12)C(=O)O (stereo unspecified)		inactive: -2.44%
Oc1c(C(c2ccccc2F)N2CCCCC2)sc2nc(-c3ccco3)nn12 (stereo unspecified)		inactive: 7.81%
Cc1ccc(S(=O)(=O)N2C[C@H]3n4c(=O)ccc(=O)n4C[C@H](OC(=O)NCC4CCCCC4)[C@@]3(O)C2)cc1	inconclusive: 18.4 µM [cytotoxic, single point]	
COc1ccc(NCc2nc3ccccc3n2CCOc2ccccc2)cc1	inconclusive: 20.6 µM [cytotoxic, single point]	
C=C(CN(C)C)C(=O)c1cc(C)ccc1C	inconclusive: 18.4 µM [cytotoxic, single point]	
CCOc1ccc(-c2cnc3ccccc3n2)cc1	inconclusive: 29.1 µM [cytotoxic, partial curve, poor fit]	
C/C(N)=C(/C#N)C(=O)COC(=O)c1cc(-c2ccc(Br)cc2)nc2ccccc12	inconclusive: 29.1 µM [cytotoxic, single point]	
O=c1[nH][nH]c2c1C(C1CCCCC1)OC(C1CCCCC1)C2 (stereo unspecified)	inconclusive: 23.1 µM [cytotoxic, single point]	
CCCCc1nc2ccccc2n2c(-c3ccc(OC)cc3)c3c(=O)n(C)c(=O)n(C)c3c12	inconclusive: 16.4 µM [cytotoxic, single point]	

Some of the entries so far, with each value named:
C=C(CN(C)C)C(=O)c1cc(C)ccc1C
  Potency: inconclusive: 18.4 µM [cytotoxic, single point]
CCOc1ccc(-c2cnc3ccccc3n2)cc1
  Potency: inconclusive: 29.1 µM [cytotoxic, partial curve, poor fit]
C/C(N)=C(/C#N)C(=O)COC(=O)c1cc(-c2ccc(Br)cc2)nc2ccccc12
  Potency: inconclusive: 29.1 µM [cytotoxic, single point]
O=c1[nH][nH]c2c1C(C1CCCCC1)OC(C1CCCCC1)C2 (stereo unspecified)
  Potency: inconclusive: 23.1 µM [cytotoxic, single point]
